In one assay the target is Flag‐Tip60 (human) (UniProt Q92993). Kind of assay: proximity ligation; U2OS cells transfected 48 h with the indicated plasmids, fixed, Duolink in situ PLA with probes against HA and Flag; in Figure 6E with overexpressed RNF8.
For assay [1], the target named is Tip60 (construct not named for the co-IP) (human) (UniProt Q92993). Kind of assay: co-IP; HEK-293T whole cell lysates in RIPA buffer, antibody 3 h at 4°C, then protein A/G Sepharose 3 h, immunoblot; cells with or without Eto or CPT; in Figure 6D with or without overexpressed RNF8. In general terms: In western blotting, separated proteins are transferred to a membrane and probed.

No constants are given. Whether binding was seen depends on the method and setting. Binding seen in cells or lysates may run through a third protein. Some entries that bind do so weakly or less than the wild type.

In the case of HA‐p53 (from UniProt P04637 1-393), in the assay with Flag‐Tip60 (human), the binding entry was “binds”.

“p53 (construct not named for the co-IP) (from UniProt P04637 1-393)”: the binding result in assay [1] is “binds”.

The values above are taken from PMC7106964.
